Data reported in paper PMC5427286.
Results are given in words; binding and its absence hold for the method and conditions named. Binding calls can cover weak binding; strength is not graded here.

Chains of the proteins cited; added tags and fusions are not shown. Lines headed by an entry give the natural chain unless they say otherwise; changes in a name come on top. Residues count along the entry.
UniProt P31170, residues 44-227: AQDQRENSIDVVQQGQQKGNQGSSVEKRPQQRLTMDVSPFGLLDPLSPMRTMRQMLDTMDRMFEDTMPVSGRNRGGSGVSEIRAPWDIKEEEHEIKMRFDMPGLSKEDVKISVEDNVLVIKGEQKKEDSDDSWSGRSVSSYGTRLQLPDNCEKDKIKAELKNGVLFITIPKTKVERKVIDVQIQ

Target: Hsp21, the 21-kDa chloroplast-localized small heat-shock protein of Arabidopsis thaliana (A. thaliana) (UniProt P31170)
Assay: cross-linking; BS3 (lysine-specific), 50 uM protein, 10- or 60-fold excess of cross-linker, room temperature, 20 min; in-gel or in-solution trypsin digestion and LC-MS/MS; mixed isotope labeling: unlabeled and 15N-labeled protein incubated at 37 C for 1 h before cross-linking, hybrid 14N-15N cross-links taken as intersubunit; both purified

Hsp21^V181A, non-dodecameric mutational variant of Hsp21 (from UniProt P31170)
binding: binds
